The list shows only some results of the screen, not a fair sample: it is rich in T/C values a quarter to a half above the control, in often repeated tests (any T/C) and in doses without a T/C. Other doses and runs of a compound stand elsewhere. T/C is the treated group as % of the vehicle group. Some entries give survivors of the animals treated and no T/C: the source holds a T/C of zero for them, seemingly a mark for toxic or unscored doses. Some survivor counts are full or nearly so, which does not show that the dose was tolerated: survival well below the control is almost never listed, so the zero probably covers shortened survival too. Counts of survivors are from the toxicity check (mostly the fifth day) where no day follows; animals may have died later. Schedules are NCI's codes, taken here to give the interval after Q, in days (D) or hours (H), and the number of doses after X. Some doses were run more than once; their values stand side by side, smallest first. Some molecules as drawn cover several salts, stereoisomers or complexes of the source; a dose is that of the sample tested. Where survival is the endpoint, this PubChem deposit counts one and a half times the control or more as active, and values a quarter to a half above the control carry no call in these data; other NCI protocols may use other cut-offs. Brackets with × say how often a value occurs here. Some T/C values carry the count of animals alive at the toxicity check (mostly the fifth day); without a count, all were alive then.
Test system: CD2F1 mice, L1210 leukemia ip, survival T/C
Experiment: NCI In Vivo Anticancer Drug Screen. Data for tumor model L1210 Leukemia (intraperitoneal) in CD2F1 (CDF1) mice
Details: higher T/C = longer survival
Outline: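 Ratio T/C, where T is the treated-group value and C the vehicle-dosed control value, from mice implanted with a transplantable tumor.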

[1] = T/C endpoint: mean survival time, dose: 100.0 mg/kg/injection, schedule: Q01DX009 (ip), vehicle: saline with Tween-80
[2] = T/C endpoint: mean survival time, dose: 200.0 mg/kg/injection, schedule: Q01DX009 (ip), vehicle: saline with Tween-80
[3] = T/C endpoint: mean survival time, dose: 300.0 mg/kg/injection, schedule: Q01DX001 (ip), vehicle: saline
[4] = T/C endpoint: mean survival time, dose: 400.0 mg/kg/injection, schedule: Q04DX002 (ip), vehicle: saline with Tween-80
[5] = T/C endpoint: mean survival time, dose: 200.0 mg/kg/injection, schedule: Q04DX003 (ip), vehicle: other
[6] = T/C endpoint: mean survival time, dose: 400.0 mg/kg/injection, schedule: Q04DX003 (ip), vehicle: other
[7] = T/C endpoint: mean survival time, dose: 100.0 mg/kg/injection, schedule: Q04DX002 (ip), vehicle: saline with Tween-80
[8] = T/C endpoint: mean survival time, dose: 200.0 mg/kg/injection, schedule: Q04DX002 (ip), vehicle: saline with Tween-80

With `Cn1cc(NC(=O)c2cc(NC(=O)c3cc(NC=O)cn3C)cn2C)cc1C(=O)NCCC(=N)N` the survivor count (T/C endpoint: mean survival time, dose: 400.0 mg/kg/injection, schedule: Q04DX003 (ip), vehicle: alcohol) was 3 of 6 and the survivor count (T/C endpoint: median survival time, dose: 200.0 mg/kg/injection, schedule: Q01DX009 (ip), vehicle: water) was 2 of 6.

With `COC(=O)C(N)Cc1ccc(O)c(O)c1` (stereo not drawn) the T/C (T/C endpoint: mean survival time, dose: 800.0 mg/kg/injection, schedule: Q01DX009 (ip), vehicle: saline) was 125 % of control [4 of 6 alive].

For `COC1=C(OC)C(=O)C(SCCCc2ccccc2)=CC1=O`, the survivor count (T/C endpoint: mean survival time, dose: 50.0 mg/kg/injection, schedule: Q01DX009 (ip), vehicle: saline with Tween-80) was 0 of 3, the survivor count [1] was 0 of 3 and the survivor count [2] was 0 of 3.

For `CN(C)c1ccc(/C=N/NC(=O)CNC(=O)Nc2cccc([N+](=O)[O-])c2)c(Cl)c1`, the survivor count [1] was 3 of 3 and the survivor count [2] was 3 of 3.

`CC[C@@]1(OC(=O)CN2CCCC2)C(=O)OCc2c1cc1n(c2=O)Cc2cc3ccccc3nc2-1` was tested, and the T/C (T/C endpoint: median survival time, dose: 12.5 mg/kg/injection, schedule: Q04DX002 (ip), vehicle: water) was 128 % of control, the T/C (T/C endpoint: median survival time, dose: 25.0 mg/kg/injection, schedule: Q04DX002 (ip), vehicle: water) was 127 and 137 % of control and the T/C (T/C endpoint: median survival time, dose: 100.0 mg/kg/injection, schedule: Q04DX002 (ip), vehicle: water) was 146 % of control.

With `CNC(=O)Nc1ccc(C(=O)NC(C)C)cc1` the T/C (T/C endpoint: mean survival time, dose: 50.0 mg/kg/injection, schedule: Q01DX009 (ip), vehicle: other) was 132 % of control and the survivor count (T/C endpoint: mean survival time, dose: 75.0 mg/kg/injection, schedule: Q01DX009 (ip), vehicle: other) was 6 of 6.

With `O=[N+]([O-])c1cc(S(=O)(=O)O)cc([N+](=O)[O-])c1Cl` the survivor count (T/C endpoint: mean survival time, dose: 200.0 mg/kg/injection, schedule: Q01DX009 (ip), vehicle: saline) was 1 of 6 and the survivor count (T/C endpoint: mean survival time, dose: 400.0 mg/kg/injection, schedule: Q01DX009 (ip), vehicle: saline) was 1 of 6.

With `Cc1ccc([Si](C)(C)c2ccccc2)cc1` the survivor count [3] was 0 of 6.

In the case of `OCCOCCN1CCN(CCCN2c3ccccc3Sc3ccc(C(F)(F)F)cc32)CC1`, the survivor count (T/C endpoint: mean survival time, dose: 12.5 mg/kg/injection, schedule: Q01DX009 (ip), vehicle: saline) is reported as 6 of 6, the survivor count (T/C endpoint: mean survival time, dose: 25.0 mg/kg/injection, schedule: Q01DX009 (ip), vehicle: saline) is reported as 0 of 6 and the T/C (T/C endpoint: mean survival time, dose: 75.0 mg/kg/injection, schedule: Q01DX001 (ip), vehicle: saline) is reported as 132 % of control. For the same compound, the survivor count (T/C endpoint: mean survival time, dose: 150.0 mg/kg/injection, schedule: Q01DX001 (ip), vehicle: saline) was 0 of 6 and the survivor count [3] was 0 of 6.

With `O=S(=O)(F)c1ccc(Cl)c(Cl)c1S` the survivor count [4] was 0 of 3.

In the case of `Cc1ccc(S(=O)(=O)N/N=C/C(=O)O)cc1`, the T/C (T/C endpoint: mean survival time, dose: 50.0 mg/kg/injection, schedule: Q04DX003 (ip), vehicle: other) is reported as 111, 118, 126, 130 (2×), 132, 134 % of control, the T/C (T/C endpoint: mean survival time, dose: 100.0 mg/kg/injection, schedule: Q01DX009 (ip), vehicle: other) is reported as 143 % of control [5 of 6 alive] and the T/C (T/C endpoint: mean survival time, dose: 100.0 mg/kg/injection, schedule: Q04DX003 (ip), vehicle: other) is reported as 110, 132, 134 (2×), 138, 143, 145 % of control. For the same compound, the T/C (T/C endpoint: mean survival time, dose: 200.0 mg/kg/injection, schedule: Q04DX003 (ip), vehicle: Klucel (hydroxypropylcellulose) (HPC)) was 131 % of control, the T/C [5] was 130 [5 of 6 alive], 151, 159, 159 [5 of 6 alive], 160, 166 % of control and the survivor count [5] was 6 of 6. For the same compound, the T/C (T/C endpoint: mean survival time, dose: 200.0 mg/kg/injection, schedule: Q04DX003 (ip), vehicle: saline with Tween-80) was 131 % of control, the survivor count (T/C endpoint: mean survival time, dose: 400.0 mg/kg/injection, schedule: Q01DX009 (ip), vehicle: other) was 0 of 6 and 1 of 6 and the T/C [6] was 94 [5 of 6 alive] and 105 % of control [5 of 6 alive]. For the same compound, the survivor count [6] was 0 of 6, 1 of 6, 4 of 6, the T/C (T/C endpoint: mean survival time, dose: 400.0 mg/kg/injection, schedule: Q04DX003 (ip), vehicle: saline with Tween-80) was 146 % of control and the T/C (T/C endpoint: median survival time, dose: 4.0 mg/kg/injection, schedule: Q03HX016 (ip), vehicle: saline) was 132 % of control. For the same compound, the T/C (T/C endpoint: median survival time, dose: 8.0 mg/kg/injection, schedule: Q01DX009 (ip), vehicle: saline) was 131 % of control, the T/C (T/C endpoint: median survival time, dose: 8.0 mg/kg/injection, schedule: Q03HX008 (ip), vehicle: saline) was 137 % of control and the T/C (T/C endpoint: median survival time, dose: 8.0 mg/kg/injection, schedule: Q03HX016 (ip), vehicle: saline) was 144 % of control. The T/C (T/C endpoint: median survival time, dose: 8.0 mg/kg/injection, schedule: Q03HX024 (ip), vehicle: saline) was 133 % of control, the T/C (T/C endpoint: median survival time, dose: 16.0 mg/kg/injection, schedule: Q01DX009 (ip), vehicle: saline) was 144 % of control and the T/C (T/C endpoint: median survival time, dose: 16.0 mg/kg/injection, schedule: Q03HX008 (ip), vehicle: saline) was 143 % of control. For the same compound, the T/C (T/C endpoint: median survival time, dose: 16.0 mg/kg/injection, schedule: Q03HX016 (ip), vehicle: saline) was 138 % of control [7 of 10 alive], the T/C (T/C endpoint: median survival time, dose: 16.0 mg/kg/injection, schedule: Q03HX024 (ip), vehicle: saline) was 131 % of control [9 of 10 alive] and the T/C (T/C endpoint: median survival time, dose: 16.0 mg/kg/injection, schedule: Q04DX003 (ip), vehicle: saline) was 134 % of control. For the same compound, the T/C (T/C endpoint: median survival time, dose: 16.0 mg/kg/injection, schedule: Q08DX002 (ip), vehicle: saline) was 134 % of control, the T/C (T/C endpoint: median survival time, dose: 32.0 mg/kg/injection, schedule: Q01DX001 (ip), vehicle: saline) was 132 % of control and the T/C (T/C endpoint: median survival time, dose: 32.0 mg/kg/injection, schedule: Q03HX008 (ip), vehicle: saline) was 146 % of control [8 of 10 alive]. For the same compound, the T/C (T/C endpoint: median survival time, dose: 32.0 mg/kg/injection, schedule: Q04DX003 (ip), vehicle: saline) was 141 % of control, the T/C (T/C endpoint: median survival time, dose: 32.0 mg/kg/injection, schedule: Q08DX002 (ip), vehicle: saline) was 143 % of control and the T/C (T/C endpoint: median survival time, dose: 64.0 mg/kg/injection, schedule: Q01DX001 (ip), vehicle: saline) was 135 % of control [9 of 10 alive]. For the same compound, the survivor count (T/C endpoint: median survival time, dose: 64.0 mg/kg/injection, schedule: Q03HX008 (ip), vehicle: saline) was 5 of 10, the survivor count (T/C endpoint: median survival time, dose: 64.0 mg/kg/injection, schedule: Q03HX016 (ip), vehicle: saline) was 6 of 10 and the T/C (T/C endpoint: median survival time, dose: 64.0 mg/kg/injection, schedule: Q08DX002 (ip), vehicle: saline) was 149 % of control [9 of 10 alive]. For the same compound, the T/C (T/C endpoint: median survival time, dose: 128.0 mg/kg/injection, schedule: Q01DX001 (ip), vehicle: saline) was 143 % of control [8 of 10 alive], the T/C (T/C endpoint: median survival time, dose: 128.0 mg/kg/injection, schedule: Q01DX009 (ip), vehicle: saline) was 131 % of control [9 of 10 alive] and the T/C (T/C endpoint: median survival time, dose: 256.0 mg/kg/injection, schedule: Q01DX001 (ip), vehicle: saline) was 138 % of control [8 of 10 alive]. For the same compound, the T/C (T/C endpoint: median survival time, dose: 256.0 mg/kg/injection, schedule: Q04DX003 (ip), vehicle: saline) was 134 % of control [8 of 10 alive], the T/C (T/C endpoint: median survival time, dose: 256.0 mg/kg/injection, schedule: Q08DX002 (ip), vehicle: saline) was 143 % of control [7 of 10 alive] and the survivor count (T/C endpoint: median survival time, dose: 512.0 mg/kg/injection, schedule: Q01DX001 (ip), vehicle: saline) was 6 of 10. The T/C (T/C endpoint: median survival time, dose: 512.0 mg/kg/injection, schedule: Q01DX009 (oral), vehicle: saline) was 126 % of control, the survivor count (T/C endpoint: median survival time, dose: 512.0 mg/kg/injection, schedule: Q08DX002 (ip), vehicle: saline) was 6 of 10 and the survivor count (T/C endpoint: median survival time, dose: 2048.0 mg/kg/injection, schedule: Q01DX001 (oral), vehicle: saline) was 5 of 10.

With `CCOC(=O)c1ccc(NC(=O)Oc2cc3ccccc3cc2C(=O)Nc2ccccc2)cc1` the survivor count (T/C endpoint: mean survival time, dose: 25.0 mg/kg/injection, schedule: Q04DX002 (ip), vehicle: saline with Tween-80) was 3 of 3, the survivor count (T/C endpoint: mean survival time, dose: 50.0 mg/kg/injection, schedule: Q04DX003 (ip), vehicle: saline with Tween-80) was 6 of 6 and the T/C [7] was 86, 87, 105 % of control. The survivor count [7] was 3 of 3, the survivor count (T/C endpoint: mean survival time, dose: 100.0 mg/kg/injection, schedule: Q04DX003 (ip), vehicle: saline with Tween-80) was 6 of 6 and the survivor count (T/C endpoint: mean survival time, dose: 200.0 mg/kg/injection, schedule: Q01DX001 (ip), vehicle: saline with Tween-80) was 6 of 6. The survivor count [8] was 3 of 3 and the survivor count [4] was 3 of 3 and 6 of 6.

In the case of `O=C(/C=C/c1ccccc1)NC(=S)NCc1ccccc1`, the T/C [8] is reported as 91, 93, 98, 103 % of control, the survivor count [8] is reported as 6 of 6 and the T/C [4] is reported as 89, 90, 100 % of control (2×). For the same compound, the survivor count [4] was 6 of 6.

— PubChem BioAssay AID256 (DTP/NCI, 2004)
